Several values for one entry are separate records, joined by “and”; a condition that tells them apart may be missing. Identical values can stand only once. This list was built around the results that the source calls inconclusive (neither active nor inactive); the mix of calls is not that of the screen. For some assays here: Potencies of inconclusive entries are doubtful fits and often do not repeat. A structure can be active in one record and inactive in another. Activity calls are given as the source filed them. How the source made its calls: active means hit-call score of the fitted dose curve at least 0.9, where 1 is the maximum; inconclusive means response in the unintended direction; inactive means score below 0.9.
Legend:
[1] = read-out: glucuronosyltransferase (UGT1A1), UGT1A1 (gene 54658); test: CLD_UGT1A1_24hr: CellzDirect (CLD) Gene Expression Assay for glucuronosyltransferase (UGT1A1) at 24 hours (AID 2283696)
Summary of the method: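 Primary human hepatocytes from two donor preparations were dosed (0.2% DMSO vehicle) and harvested at 24 h; UGT1A1 mRNA induction was quantified by chemiluminescent qNPA, fitted as gain relative to DMSO.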

The chains behind the UniProt entries cited, without tags or fusion partners. Where a name states a change or a piece, a line headed by the entry shows the natural chain unless it says otherwise.
UniProt P03372, whole entry, looked up: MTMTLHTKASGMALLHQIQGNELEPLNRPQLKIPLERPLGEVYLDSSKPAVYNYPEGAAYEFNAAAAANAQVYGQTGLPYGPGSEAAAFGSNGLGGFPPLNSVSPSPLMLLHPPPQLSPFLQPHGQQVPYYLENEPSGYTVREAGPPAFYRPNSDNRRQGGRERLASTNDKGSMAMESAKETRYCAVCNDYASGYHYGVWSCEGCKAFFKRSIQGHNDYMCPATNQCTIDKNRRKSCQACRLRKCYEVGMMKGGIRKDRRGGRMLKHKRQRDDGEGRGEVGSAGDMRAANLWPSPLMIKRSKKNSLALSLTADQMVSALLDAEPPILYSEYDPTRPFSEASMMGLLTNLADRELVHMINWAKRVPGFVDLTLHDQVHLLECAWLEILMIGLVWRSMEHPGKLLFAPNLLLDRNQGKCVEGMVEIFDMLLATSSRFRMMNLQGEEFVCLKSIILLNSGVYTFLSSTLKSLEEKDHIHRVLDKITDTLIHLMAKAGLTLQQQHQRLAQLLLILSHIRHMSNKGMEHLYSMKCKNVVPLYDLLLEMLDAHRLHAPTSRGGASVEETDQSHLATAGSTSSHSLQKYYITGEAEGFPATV
UniProt P19785, whole entry, looked up: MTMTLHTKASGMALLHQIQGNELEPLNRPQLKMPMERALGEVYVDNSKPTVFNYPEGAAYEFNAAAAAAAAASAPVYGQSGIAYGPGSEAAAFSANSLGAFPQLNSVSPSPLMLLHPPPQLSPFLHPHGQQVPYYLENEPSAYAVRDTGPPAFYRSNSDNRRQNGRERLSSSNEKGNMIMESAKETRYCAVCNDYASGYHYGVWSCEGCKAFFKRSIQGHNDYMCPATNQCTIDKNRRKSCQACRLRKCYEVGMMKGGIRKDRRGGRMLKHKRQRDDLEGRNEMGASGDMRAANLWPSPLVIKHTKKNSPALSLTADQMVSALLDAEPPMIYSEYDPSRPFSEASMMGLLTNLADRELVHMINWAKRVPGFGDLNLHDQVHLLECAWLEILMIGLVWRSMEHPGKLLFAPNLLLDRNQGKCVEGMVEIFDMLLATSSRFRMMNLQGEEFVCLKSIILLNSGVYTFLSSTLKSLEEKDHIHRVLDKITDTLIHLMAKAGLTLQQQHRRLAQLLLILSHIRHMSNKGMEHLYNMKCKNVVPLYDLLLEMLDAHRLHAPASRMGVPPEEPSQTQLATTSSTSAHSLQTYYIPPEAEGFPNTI
UniProt Q07869: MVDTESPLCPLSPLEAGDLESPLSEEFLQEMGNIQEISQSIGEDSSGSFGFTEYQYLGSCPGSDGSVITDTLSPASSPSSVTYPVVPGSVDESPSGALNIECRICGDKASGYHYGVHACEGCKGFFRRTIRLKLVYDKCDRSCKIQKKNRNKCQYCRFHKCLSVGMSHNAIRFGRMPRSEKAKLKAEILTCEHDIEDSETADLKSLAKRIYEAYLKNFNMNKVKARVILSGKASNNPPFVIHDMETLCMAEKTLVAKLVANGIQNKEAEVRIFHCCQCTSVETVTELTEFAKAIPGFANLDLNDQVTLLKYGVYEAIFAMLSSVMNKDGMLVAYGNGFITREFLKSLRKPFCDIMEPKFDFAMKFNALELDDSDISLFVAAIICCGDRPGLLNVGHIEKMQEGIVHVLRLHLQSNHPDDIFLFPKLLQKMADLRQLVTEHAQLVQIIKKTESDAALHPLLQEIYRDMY
UniProt P04386, whole entry, looked up: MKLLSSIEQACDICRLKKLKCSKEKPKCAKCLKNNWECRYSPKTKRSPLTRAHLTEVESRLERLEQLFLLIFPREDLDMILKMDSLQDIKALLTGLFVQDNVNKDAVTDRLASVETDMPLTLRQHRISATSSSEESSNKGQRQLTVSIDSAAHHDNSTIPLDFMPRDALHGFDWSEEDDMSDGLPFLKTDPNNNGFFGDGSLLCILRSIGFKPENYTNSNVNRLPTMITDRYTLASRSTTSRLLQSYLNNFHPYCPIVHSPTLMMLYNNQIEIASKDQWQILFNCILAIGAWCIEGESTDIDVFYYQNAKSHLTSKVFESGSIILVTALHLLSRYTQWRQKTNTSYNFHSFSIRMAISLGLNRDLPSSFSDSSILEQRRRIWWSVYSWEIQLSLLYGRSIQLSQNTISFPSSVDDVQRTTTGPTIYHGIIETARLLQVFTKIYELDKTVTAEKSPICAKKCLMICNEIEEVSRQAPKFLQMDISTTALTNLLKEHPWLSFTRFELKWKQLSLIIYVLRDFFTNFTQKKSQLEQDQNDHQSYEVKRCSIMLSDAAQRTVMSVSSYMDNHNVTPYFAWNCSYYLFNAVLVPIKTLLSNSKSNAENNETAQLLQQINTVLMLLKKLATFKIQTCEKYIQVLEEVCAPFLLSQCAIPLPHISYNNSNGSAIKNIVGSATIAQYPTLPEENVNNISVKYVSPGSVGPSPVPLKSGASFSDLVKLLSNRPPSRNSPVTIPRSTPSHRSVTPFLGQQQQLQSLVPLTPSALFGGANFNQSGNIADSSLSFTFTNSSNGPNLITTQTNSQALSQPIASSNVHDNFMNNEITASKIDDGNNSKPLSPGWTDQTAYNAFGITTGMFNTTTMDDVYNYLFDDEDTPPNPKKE
UniProt P10827: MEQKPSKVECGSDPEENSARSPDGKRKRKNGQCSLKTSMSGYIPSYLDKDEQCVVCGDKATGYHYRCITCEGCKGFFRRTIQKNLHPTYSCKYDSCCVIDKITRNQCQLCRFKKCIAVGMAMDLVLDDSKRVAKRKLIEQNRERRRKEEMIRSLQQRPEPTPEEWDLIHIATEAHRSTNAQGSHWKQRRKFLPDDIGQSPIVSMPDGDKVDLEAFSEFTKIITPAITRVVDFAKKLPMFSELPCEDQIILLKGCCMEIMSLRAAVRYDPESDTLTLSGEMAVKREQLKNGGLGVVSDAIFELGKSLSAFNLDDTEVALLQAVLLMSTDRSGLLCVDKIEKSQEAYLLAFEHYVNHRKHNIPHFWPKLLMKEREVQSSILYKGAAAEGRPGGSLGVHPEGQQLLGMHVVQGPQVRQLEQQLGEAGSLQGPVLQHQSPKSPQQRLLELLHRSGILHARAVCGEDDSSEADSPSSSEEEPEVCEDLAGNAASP
UniProt P31749: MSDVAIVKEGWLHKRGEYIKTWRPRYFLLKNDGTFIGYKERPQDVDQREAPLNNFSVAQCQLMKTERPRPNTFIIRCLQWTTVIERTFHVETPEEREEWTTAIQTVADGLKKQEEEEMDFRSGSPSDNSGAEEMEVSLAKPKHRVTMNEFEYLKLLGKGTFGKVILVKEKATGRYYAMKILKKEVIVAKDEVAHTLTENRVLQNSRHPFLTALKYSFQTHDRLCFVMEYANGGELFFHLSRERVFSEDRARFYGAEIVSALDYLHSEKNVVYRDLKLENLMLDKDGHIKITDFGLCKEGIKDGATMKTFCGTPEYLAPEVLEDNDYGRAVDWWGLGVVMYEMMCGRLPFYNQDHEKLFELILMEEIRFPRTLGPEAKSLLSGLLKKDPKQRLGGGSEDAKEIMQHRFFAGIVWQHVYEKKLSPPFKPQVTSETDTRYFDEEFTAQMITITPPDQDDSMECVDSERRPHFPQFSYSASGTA
UniProt P10275: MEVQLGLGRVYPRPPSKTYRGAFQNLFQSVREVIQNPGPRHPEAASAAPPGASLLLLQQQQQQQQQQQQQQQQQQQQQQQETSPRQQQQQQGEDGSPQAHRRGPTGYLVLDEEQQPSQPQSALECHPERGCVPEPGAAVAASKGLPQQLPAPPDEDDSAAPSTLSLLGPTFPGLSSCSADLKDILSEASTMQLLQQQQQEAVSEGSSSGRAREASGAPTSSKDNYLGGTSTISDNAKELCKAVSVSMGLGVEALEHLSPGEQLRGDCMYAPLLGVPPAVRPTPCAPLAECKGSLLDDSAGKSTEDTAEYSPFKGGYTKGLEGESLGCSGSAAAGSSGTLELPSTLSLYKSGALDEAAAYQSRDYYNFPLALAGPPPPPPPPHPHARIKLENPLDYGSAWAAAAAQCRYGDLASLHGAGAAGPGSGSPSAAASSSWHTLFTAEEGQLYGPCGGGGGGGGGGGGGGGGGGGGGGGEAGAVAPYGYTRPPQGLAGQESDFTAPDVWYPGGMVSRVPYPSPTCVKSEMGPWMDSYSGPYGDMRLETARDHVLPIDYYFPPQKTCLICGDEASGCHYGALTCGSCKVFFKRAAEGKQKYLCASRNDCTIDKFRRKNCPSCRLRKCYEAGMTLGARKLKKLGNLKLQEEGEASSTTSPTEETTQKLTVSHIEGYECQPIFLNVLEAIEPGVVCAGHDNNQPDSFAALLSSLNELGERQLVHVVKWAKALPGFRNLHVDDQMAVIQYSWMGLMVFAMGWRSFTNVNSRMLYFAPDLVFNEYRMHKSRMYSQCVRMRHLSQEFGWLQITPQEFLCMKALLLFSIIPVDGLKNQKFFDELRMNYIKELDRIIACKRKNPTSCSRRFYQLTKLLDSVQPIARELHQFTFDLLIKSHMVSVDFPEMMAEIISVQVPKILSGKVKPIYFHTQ
UniProt P10276, whole entry, looked up: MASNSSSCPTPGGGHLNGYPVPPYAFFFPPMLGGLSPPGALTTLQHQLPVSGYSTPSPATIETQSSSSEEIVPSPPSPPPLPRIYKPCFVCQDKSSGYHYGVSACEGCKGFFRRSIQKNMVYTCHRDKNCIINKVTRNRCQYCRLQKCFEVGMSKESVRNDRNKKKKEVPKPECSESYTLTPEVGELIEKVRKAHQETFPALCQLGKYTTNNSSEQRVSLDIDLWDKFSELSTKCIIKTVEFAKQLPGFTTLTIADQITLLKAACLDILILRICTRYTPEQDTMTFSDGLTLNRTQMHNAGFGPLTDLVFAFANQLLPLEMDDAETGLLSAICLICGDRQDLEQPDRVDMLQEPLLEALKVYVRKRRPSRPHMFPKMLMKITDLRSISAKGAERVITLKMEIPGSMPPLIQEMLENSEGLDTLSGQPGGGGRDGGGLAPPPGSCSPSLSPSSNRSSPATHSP
UniProt Q98867: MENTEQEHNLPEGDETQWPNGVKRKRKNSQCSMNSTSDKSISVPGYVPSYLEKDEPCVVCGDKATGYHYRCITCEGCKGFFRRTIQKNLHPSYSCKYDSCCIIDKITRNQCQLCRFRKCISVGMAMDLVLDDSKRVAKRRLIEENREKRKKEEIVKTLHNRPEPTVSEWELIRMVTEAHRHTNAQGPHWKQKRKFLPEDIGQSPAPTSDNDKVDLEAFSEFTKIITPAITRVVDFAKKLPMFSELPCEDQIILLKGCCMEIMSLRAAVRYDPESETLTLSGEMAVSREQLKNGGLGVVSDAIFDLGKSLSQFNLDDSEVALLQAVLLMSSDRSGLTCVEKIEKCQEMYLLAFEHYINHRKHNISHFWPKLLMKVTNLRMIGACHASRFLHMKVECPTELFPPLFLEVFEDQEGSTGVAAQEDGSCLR
UniProt P30536, whole entry, looked up: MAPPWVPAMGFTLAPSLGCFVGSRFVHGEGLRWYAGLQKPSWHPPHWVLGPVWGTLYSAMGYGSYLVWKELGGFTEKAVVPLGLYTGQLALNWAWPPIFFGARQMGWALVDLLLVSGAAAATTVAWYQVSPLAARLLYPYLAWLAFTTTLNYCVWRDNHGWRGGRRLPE
UniProt P08219: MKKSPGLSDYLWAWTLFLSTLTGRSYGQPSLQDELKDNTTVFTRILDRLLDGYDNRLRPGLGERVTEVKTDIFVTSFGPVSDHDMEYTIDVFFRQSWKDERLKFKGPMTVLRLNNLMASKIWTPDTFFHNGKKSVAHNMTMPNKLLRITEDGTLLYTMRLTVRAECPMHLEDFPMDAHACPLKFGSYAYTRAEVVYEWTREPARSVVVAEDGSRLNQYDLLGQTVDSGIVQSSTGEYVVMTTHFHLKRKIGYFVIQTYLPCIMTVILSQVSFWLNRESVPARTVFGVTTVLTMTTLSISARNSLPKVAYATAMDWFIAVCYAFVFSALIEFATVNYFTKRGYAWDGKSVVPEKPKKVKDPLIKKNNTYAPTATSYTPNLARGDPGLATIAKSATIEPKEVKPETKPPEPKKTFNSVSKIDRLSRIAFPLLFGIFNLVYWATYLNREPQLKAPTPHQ
UniProt P20813: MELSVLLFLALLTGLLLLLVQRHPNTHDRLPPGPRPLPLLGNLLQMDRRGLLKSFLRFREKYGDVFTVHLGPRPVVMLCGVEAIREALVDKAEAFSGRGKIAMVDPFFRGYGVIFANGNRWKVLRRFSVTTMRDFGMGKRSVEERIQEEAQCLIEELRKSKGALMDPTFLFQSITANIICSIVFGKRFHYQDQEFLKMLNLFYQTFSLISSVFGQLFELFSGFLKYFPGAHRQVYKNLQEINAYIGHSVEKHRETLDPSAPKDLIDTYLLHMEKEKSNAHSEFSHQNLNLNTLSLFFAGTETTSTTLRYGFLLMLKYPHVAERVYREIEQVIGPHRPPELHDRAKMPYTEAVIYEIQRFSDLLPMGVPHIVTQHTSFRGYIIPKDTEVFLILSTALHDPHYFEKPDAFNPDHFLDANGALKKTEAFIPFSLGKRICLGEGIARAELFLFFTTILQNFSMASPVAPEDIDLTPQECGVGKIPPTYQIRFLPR

[2] = molecular target: Estrogen receptor (Homo sapiens) (UniProt P03372); test: NVS_NR_hER: NovaScreen (NVS) Nuclear Receptor Binding Assay for human Estrogen Receptor (ER) (AID 2283348)
Summary of the method: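 Scintillation signal from bound radioligand was measured 18 hours after chemical addition to cell-free MCF7 protein extracts, with DMSO as baseline. Activity was scored as signal loss; compounds ran first at 25 uM in duplicate.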

[3] = molecular target: mouse Estrogen Receptor alpha (Era), Esr1 (gene 13982) (UniProt P19785); test: NVS_NR_mERa: NovaScreen (NVS) Nuclear Receptor Binding Assay for mouse Estrogen Receptor alpha (Era) (AID 2283378);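 further: hit means loss of bound radioligand signal relative to DMSO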
Summary of the method: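 Measurements come from scintillation counting after filtration, taken 18 hours after chemicals were added to a cell-free mouse Era preparation with radioligand. Screening was duplicate at 25 uM, with concurrent positive and negative controls and confirmatory concentration series for actives.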

[4] = read-out: alkyl and aryl transferase (GSTA2), GSTA2 (gene 2939); test: CLD_GSTA2_6hr: CellzDirect (CLD) Gene Expression Assay for alkyl and aryl transferase (GSTA2) at 6 hours (AID 2283666)
Summary of the method: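 Primary human hepatocytes from two donor preparations were dosed daily with fresh compound at multiple concentrations, 0.2% DMSO vehicle. GSTA2 mRNA was measured at 6 hours by qNPA chemiluminescence; induction fitted relative to DMSO, with cytotoxicity flagged morphologically.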

[5] = molecular target: human Peroxisome Proliferator-activated Receptor alpha (PPARa), PPARA (gene 5465) (UniProt Q07869); test: NVS_NR_hPPARa: NovaScreen (NVS) Nuclear Receptor Binding Assay for human Peroxisome Proliferator-activated Receptor alpha (PPARa) (AID 2283359);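 further: activity means loss of TR-FRET signal versus DMSO baseline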
Summary of the method: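 Chemicals were first screened in duplicate at 25 uM, and active ones were retested across concentration series. Binding was monitored by TR-FRET one hour after dosing, with decreased signal against DMSO counted as activity.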

[6] = system: turtle Androgen Receptor (AR), gene 101947425; test: ATG_trAR_XSP1: Attagene TRANS-FACTORIAL Multi-Species (XSP1) HepG2 Assay for turtle Androgen Receptor (AR) (AID 2283786)
Summary of the method: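 HepG2 cells transiently transfected with a turtle AR–GAL4 chimera and GAL4-UAS reporter, co-treated with 3 nM 6-alpha-fluorotestosterone for partial stimulation. Reporter mRNA is quantified at 24 h by RT-PCR and capillary electrophoresis, gain-of-signal versus DMSO.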

[7] = molecular target: GAL4 Transcription Factor (Internal Marker), GAL4 (gene 855828) (UniProt P04386); test: ATG_GAL4_XSP1: Attagene TRANS-FACTORIAL Multi-Species (XSP1) HepG2 Assay for GAL4 Transcription Factor (Internal Marker) (AID 2283789)
Summary of the method: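 HepG2 cells transiently transfected with multiplexed GAL4-UAS reporter units were exposed for 24 h with 3 nM 6-alpha-fluorotestosterone present. Reporter mRNA was quantified by RT-PCR, FAM labelling, HpaI digestion and capillary electrophoresis; background-control readout, gain-of-signal versus DMSO.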

[8] = molecular target: human Thyroid hormone Receptor alpha (TRa), THRA (gene 7067) (UniProt P10827); test: ATG_hTRa_XSP1: Attagene TRANS-FACTORIAL Multi-Species (XSP1) HepG2 Assay for human Thyroid hormone Receptor alpha (TRa) (AID 2283805)
Summary of the method: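 HepG2 cells transiently transfected with GAL4-UAS reporter units expressing chimeric NR-Gal4 proteins, dosed 24 hours with 3 nM 6-alpha-fluorotestosterone present. Reporter mRNA measured by RT-PCR and capillary electrophoresis; gain of signal fitted versus DMSO.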

[9] = molecular target: human AKT serine/threonine Kinase 1 (AKT1), AKT1 (gene 207) (UniProt P31749); test: NVS_ENZ_hAKT1: NovaScreen (NVS) Enzymatic Assay for human AKT serine/threonine Kinase 1 (AKT1) (AID 2283138)
Summary of the method: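 Recombinant AKT1, specific substrate, cell-free; 1 h; fluorescence intensity/electrophoretic mobility shift. Duplicate single-point 25 uM, then singleton CRC max 50 uM. DMSO = negative control/baseline; signal loss = inhibition.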

[10] = CCTE_Shafer_MEA_acute_LDH: CCTE's Lactate Dehydrogenase Assay for Cytotoxicity in the Neural Acute Assay, Shafer Lab (AID 2284086);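 further: active means LDH release rises above DMSO vehicle level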
Summary of the method: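 Rat cortical neurons cultured on microelectrode arrays; baseline 40-min recording, compound added, second 40-min recording; medium then sampled for released LDH (colorimetric kit, 490 nm). DMSO = negative control.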

[11] = molecular target: Ratio of Nucleoli Translocation and Cytoplasm, AR (gene 367) (UniProt P10275); test: UPITT_HCI_U2OS_AR_TIF2_Nucleoli_Cytoplasm_Ratio_Agonist: University of Pittsburgh U2OS Androgen Receptor-Transcriptional Intermediary Factor 2 (AR-TIF2) Agonism High Content Imaging Assay for Ratio of Nucleoli Translocation and Cytoplasm (AID 2284000);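 further: hits raise the red nucleolar to cytoplasm ratio above vehicle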
Summary of the method: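 Read-out first: nucleolar-to-cytoplasm ratio of red (AR-RFP) signal, quantified by high-content imaging in U2OS cells co-expressing TIF2-GFP. Activity is scored as signal increase over DMSO. Single-point screening used 20 uM final (0.2% DMSO).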

[12] = molecular target: Retinoic acid receptor alpha (Homo sapiens) (UniProt P10276); test: NVS_NR_hRAR_Antagonist: NovaScreen (NVS) Nuclear Receptor Binding Assay for human Retinoic Acid Alpha Receptor Antagonism (RAR) (AID 2283358)
Summary of the method: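 TR-FRET, cell-free, antagonist format; 2 h incubation after dosing; DMSO = baseline; signal loss fitted; 25 uM duplicate primary, then conc. series.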

[13] = CCTE_Simmons_CellTiterGLO_HEK293T: Viability Assessment in CCTE's Assays for Thyroperoxidase (TPO) Inhibition, Simmons Lab (AID 2283665);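 on AC50: cells exposed to compound for 24 h before readout; actives reduce ATP signal below DMSO vehicle meaning cytotoxicity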
Summary of the method: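 HEK293T, 10 000 cells/well, DMEM + 1% FBS; 8-pt titration 5 nM–87.5 uM [final], 0.5% DMSO; 24 hr, 37C, 5% CO2; CellTiter-Glo luminescence; n=3 biological replicates.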

[14] = molecular target: zebrafish Thyroid Hormone Receptor alpha (TRa), thraa (gene 30670) (UniProt Q98867); test: ATG_zfTRa_XSP2: Attagene TRANS-FACTORIAL Multi-Species (XSP1) HepG2 Assay for zebrafish Thyroid Hormone Receptor alpha (TRa) (AID 2283832);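 further: actives raise zebrafish TRa-Gal4 reporter transcript above DMSO baseline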
Summary of the method: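 Transient transfection of human HepG2 with GAL4-UAS reporter units, then 24 h chemical treatment. RNA isolated, reverse-transcribed, PCR-amplified, FAM-labelled, HpaI-digested and run on capillary electrophoresis. Gain-of-signal relative to DMSO.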

[15] = CCTE_Mundy_HCI_Cortical_NOG_NeuronCount: CCTE's Neurite Outgrowth Assay in rat cortical cells for Neuron Count, Mundy Lab (AID 2284236);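 further: neurons counted by imaging betaIII-tubulin and Hoechst stained cortical cells; cells exposed to compound for about 48 hours before fixation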
Summary of the method: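 Read-out: neuron number by high-content imaging of betaIII-tubulin (Alexa Fluor-488) and Hoechst-labelled rat primary cortical cells.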

[16] = molecular target: human Peripheral-type Benzodiazepine Receptor (PBR), TSPO (gene 706) (UniProt P30536); test: NVS_MP_hPBR: NovaScreen (NVS) Membrane Protein Assay for human Peripheral-type Benzodiazepine Receptor (PBR) (AID 2283331);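 further: hits reduce radioligand binding relative to DMSO baseline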
Summary of the method: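 Scintillation counts of filter-bound radioligand served as read-out after 1 h chemical dosing of human colonic membrane preparations. Activity was scored as signal loss against DMSO; initial duplicates at 25 uM, confirmatory concentration series afterward.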

[17] = molecular target: bovine Gamma-Aminobutyric Acid Type A Receptor Agonist (GABAR Agonist), GABRA1 (gene 780973) (UniProt P08219); test: NVS_LGIC_bGABAR_Agonist: NovaScreen (NVS) Ligand-Gated Ion Channel Assay for bovine Gamma-Aminobutyric Acid Type A Receptor Agonist (GABAR Agonist) (AID 2283338)
Summary of the method: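 Radioligand binding to bovine cerebellar membranes in agonist format, read by filter-based scintillation counting after 1 h. Primary screen in duplicate at 25 uM, with actives followed in concentration series. Gain of signal versus DMSO.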

[18] = Tanguay_ZF_120hpf_SNOU_legacy: (Legacy) Oregon State University Tanguay Lab 120 Hour Post-fertilization zebrafish Assay for Snout Malformation (AID 2283637)
Summary of the method: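 Snout malformation read as a yes/no call on brightfield images of 120 hpf larvae (Tropical 5D strain). Static exposure began at 6 hpf on dechorionated embryos in 0.64% DMSO, with gain of signal analysed versus DMSO controls.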

[19] = read-out: Cytochrome P450 2B6 (Homo sapiens) (UniProt P20813); test: CLD_CYP2B6_24hr: CellzDirect (CLD) Gene Expression Assay for xenobiotic metabolism (CYP2B6) at 24 hours (AID 2283686)
Summary of the method: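 Primary human hepatocytes dosed daily for two days with fresh solutions, harvested at 24 hours; mRNA induction quantified by qNPA chemiluminescence, gain of signal vs 0.2% DMSO vehicle. Cytotoxicity annotated from phase-contrast morphology.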

In the case of `Cc1ccccc1CO[C@@H]1C[C@@]2(C(C)C)CC[C@]1(C)O2`, the AC50 [1] was active: 5.18 µM.

In the case of `O=[N+]([O-])c1c(Cl)c(Cl)cc(Cl)c1Cl`, the AC50 [2] was inconclusive: 1.75 µM and the AC50 [3] was inconclusive: 25 µM.

With `C[Si](Cn1cncn1)(c1ccc(F)cc1)c1ccc(F)cc1` the AC50 [4] was inconclusive: 3.97 µM.

For `CCCCOC(=O)c1ccccc1C(=O)OCc1ccccc1`, the outcome [5] was “inactive”, the AC50 [6] was inconclusive: 35.3 µM and the AC50 [7] was inconclusive: 48.2 µM. For the same compound, the AC50 [8] was inconclusive: 26.2 µM.

For `CCN(CC)N=O`, the AC50 [9] was inconclusive: 0.0545 µM and the AC50 [10] was inconclusive: 0.0229 µM.

With `CC(C)=CC1C(C(=O)OCN2C(=O)C3=C(CCCC3)C2=O)C1(C)C` (stereo unspecified) the AC50 [11] was inconclusive: 50 µM.

With `CCOP(=O)(NC(C)C)Oc1ccc(SC)c(C)c1` (stereo unspecified) the outcome [12] was “inactive”, the AC50 [13] was inconclusive: 53.8 µM and the outcome [14] was “inactive”.

For `N#CN=C1SCCN1Cc1ccc(Cl)nc1`, the AC50 [2] was inconclusive: 0.143 µM, the AC50 [12] was inconclusive: 25 µM and the AC50 [15] was inconclusive: 0.0001 µM.

In the case of `CC1(C)[C@H](C(=O)O[C@H](C#N)c2cccc(Oc3ccccc3)c2)[C@@H]1C=C(Br)Br`, the AC50 [16] was active: 10.1 µM, the outcome [16] was “inactive” and the AC50 [11] was inconclusive: 50 µM.

With `O=P(Oc1ccccc1)(Oc1ccccc1)Oc1ccccc1` the outcome [17] was “inactive”, the AC50 [6] was inconclusive: 100 µM and the AC50 [7] was inconclusive: 26.2 µM. For the same compound, the AC50 [8] was inconclusive: 100 µM.

For `O=C(O)CCl`, the outcome [13] was “inactive”.

For `O=S(=O)(O)C(F)(F)C(F)(F)C(F)(F)C(F)(F)C(F)(F)C(F)(F)C(F)(F)C(F)(F)F`, the AC50 [9] was active: 46.7 µM, the AC50 [16] was inconclusive: 16.7 µM and the outcome [17] was “inactive”. For the same compound, the AC50 [5] was active: 11.2 µM, the outcome [5] was “inactive” and the AC50 [18] was active: 25.1 µM and active: 33.2 µM and inconclusive: 190 µM. For the same compound, the outcome [18] was “inactive”, the AC50 [13] was active: 64.1 µM and active: 57.1 µM and the AC50 [6] was active: 130 µM. For the same compound, the AC50 [7] was inconclusive: 147 µM, the AC50 [8] was inconclusive: 19.7 µM and the AC50 [14] was inconclusive: 27.4 µM. For the same compound, the AC50 [10] was inconclusive: 16.8 µM and the outcome [15] was “inactive”.

With `C=C(C)[C@H]1Cc2c(ccc3c2O[C@@H]2COc4cc(OC)c(OC)cc4[C@@H]2C3=O)O1` the AC50 [19] was inconclusive: 0.0845 µM and the AC50 [1] was inconclusive: 0.111 µM.
